# Experimental data published in PMC10681901.
# Protein sequences, listed by entry. Tags and fused reporters are not part of them.
# UniProt P29351: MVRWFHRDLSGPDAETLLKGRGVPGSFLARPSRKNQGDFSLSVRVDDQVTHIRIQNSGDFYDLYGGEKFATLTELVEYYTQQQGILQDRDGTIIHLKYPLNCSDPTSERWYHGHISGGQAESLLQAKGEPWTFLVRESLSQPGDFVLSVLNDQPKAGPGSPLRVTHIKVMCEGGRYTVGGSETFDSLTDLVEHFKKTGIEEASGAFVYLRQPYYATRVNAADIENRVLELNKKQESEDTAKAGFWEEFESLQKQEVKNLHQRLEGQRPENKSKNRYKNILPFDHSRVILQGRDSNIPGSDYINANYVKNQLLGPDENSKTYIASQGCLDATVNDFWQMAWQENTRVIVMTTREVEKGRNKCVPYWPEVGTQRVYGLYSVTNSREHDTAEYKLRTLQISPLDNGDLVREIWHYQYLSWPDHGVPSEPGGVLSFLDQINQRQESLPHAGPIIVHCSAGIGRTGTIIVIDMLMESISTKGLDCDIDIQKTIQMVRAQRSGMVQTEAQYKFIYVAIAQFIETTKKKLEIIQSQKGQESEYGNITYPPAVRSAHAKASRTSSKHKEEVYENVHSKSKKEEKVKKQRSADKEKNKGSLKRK
# Molecular target: T1, CD3γ-Y-Y biotinylated peptide (cytoplasmic tail of mouse CD3γ, unphosphorylated) (mouse)
# T1 sequence (peptide, biotin on the N-terminus; free C-terminal COOH): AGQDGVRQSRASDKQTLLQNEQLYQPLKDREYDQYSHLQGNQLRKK
# Assay: affinity purification with mass spectrometry; biotinylated peptide added to lysates (0.35% Brij96V) of SILAC-labelled 2B4 T cells (200 × 10^6 cells), captured on StrepT-actine Sepharose beads, heavy and light samples mixed in the third wash, MS-MS; peptides and beads in vast molecular excess; only the target purified
substance,measurement,value
"Src homology 2-containing protein tyrosine phosphatase-1 (SHP-1), endogenous in 2B4 T cells (from UniProt P29351 1-595) (enzyme)",binding,no binding

# No constants are given. Whether binding was seen depends on the method and setting. Binding seen in cells or lysates may run through a third protein. These calls come from enrichment with a bait or labelling near it, and not all partners need be listed. A no says only that the protein was not detected with the bait.
